The record followed here is paper PMC9017153.

Chains of the proteins cited; added tags and fusions are not shown.
UniProt Q8CJG0, whole entry: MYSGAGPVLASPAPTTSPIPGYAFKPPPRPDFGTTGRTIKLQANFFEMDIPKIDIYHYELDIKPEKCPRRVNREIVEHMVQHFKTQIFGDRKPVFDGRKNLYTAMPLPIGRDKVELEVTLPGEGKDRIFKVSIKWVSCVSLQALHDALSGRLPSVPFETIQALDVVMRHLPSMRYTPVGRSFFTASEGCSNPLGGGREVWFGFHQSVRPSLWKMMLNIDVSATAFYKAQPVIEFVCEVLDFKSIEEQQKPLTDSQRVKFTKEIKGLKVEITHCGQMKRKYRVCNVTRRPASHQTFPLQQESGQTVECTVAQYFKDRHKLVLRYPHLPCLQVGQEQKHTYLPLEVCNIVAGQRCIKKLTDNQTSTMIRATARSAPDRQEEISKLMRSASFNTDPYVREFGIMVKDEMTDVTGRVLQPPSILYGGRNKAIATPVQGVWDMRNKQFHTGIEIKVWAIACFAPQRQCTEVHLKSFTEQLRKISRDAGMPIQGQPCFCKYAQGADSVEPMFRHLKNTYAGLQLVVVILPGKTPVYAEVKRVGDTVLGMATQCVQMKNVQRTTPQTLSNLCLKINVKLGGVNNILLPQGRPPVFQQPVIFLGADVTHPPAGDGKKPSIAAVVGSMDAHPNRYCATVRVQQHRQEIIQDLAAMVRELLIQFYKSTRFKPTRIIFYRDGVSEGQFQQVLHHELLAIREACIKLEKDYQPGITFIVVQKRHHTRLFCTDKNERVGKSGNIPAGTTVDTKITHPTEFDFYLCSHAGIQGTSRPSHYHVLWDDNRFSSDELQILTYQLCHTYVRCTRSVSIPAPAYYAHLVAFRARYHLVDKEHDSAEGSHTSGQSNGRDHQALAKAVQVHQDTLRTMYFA

Construct, isoform or probe ends are uncertain for at least one entry. At least one verdict rests on a figure or table, not on a statement of the authors.

In series [1] the target is AGO2 (RISC loaded with miR-449a) (mouse) (UniProt Q8CJG0). In words: double-filter binding titration. The following applies: 0.5 nM target; phosphorothioate flanked by 2'-O-methyl at t10 and t11 per Methods; 5' phosphate; filter titration: 30 mM HEPES-KOH pH 7.9, 120 mM K acetate, 3.5 mM Mg acetate, 2 mM DTT, 0.01% CHAPS, 37 C, 1 h; recombinant protein; protein details: 3xFLAG; label: 5' 32P.

For series [2], the target named is AGO2 (RISC loaded with let-7a) (mouse) (UniProt Q8CJG0). In words: double-filter binding titration. The following applies: 0.5 nM target; target: phosphorothioate flanked by 2'-O-methyl at t10 and t11 per Methods; 5' phosphate; filter titration: 30 mM HEPES-KOH pH 7.9, 120 mM K acetate, 3.5 mM Mg acetate, 2 mM DTT, 0.01% CHAPS, 37 C, 1 h; recombinant protein; protein details: 3xFLAG; label: 5' 32P on target.

Regarding “AUGAAAUCGAUAUCUAUCACUGCCAACU [miR-449a titration target]”, in series [1], the binding result was “binds”.

In the case of “UGAGGUAGUAGGUUGUAUAGU / AAAAUGAUAACAAGGAUCUACCUCAAAA [let-7a guide / titration target]”, the binding result in series [2] is on record as “binds”.
